PubChem BioAssay AID1508588 | Peter MacCallum Cancer Centre, 2020
Here is one part, drawn at random, of about 18,000 reagents tested. 790 of them (4.4%) count as active. 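Calls rest on a combination of fold-change classes in drug and vehicle arms, not all shown here.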 A number with no mark means an inactive call. Reagents against one gene are numbered here. A reagent listed more than once was tested more than once; the source does not tell the runs apart.

Purpose: 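Genome-wide search for knock-downs that heighten vemurafenib action in melanoma cells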 (primary screen)
System: human WM266.4 melanoma cells (BRAF V600 mutant)
Reagent: siRNA pool against human genes, 40 nM
Duration: 96 h from transfection to read-out
Challenge: vemurafenib 300 nM (about IC25), added 48 h after transfection, for 48 h; comparison arm got DMSO vehicle only
Read-out: 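Cell gain (DAPI nuclei at end minus before drug, mean of two replicates) and medium lactate by absorbance per cell, both as ratio to non-targeting siRNA, also grouped into fold-change classes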
Scale: cell gain with vemurafenib: higher = more cell gain than with non-targeting siRNA; lactate per cell with vemurafenib: higher = more lactate made per cell
Call rule: 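a knock-down counts as enhancing when its fold-change classes with vehicle and with vemurafenib, taken together, show a stronger drug effect on cell gain or lactate per cell; exact class pairs not stated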
Calls: active = enhances vemurafenib effect; inactive = no enhancement seen

gene	reagent	cell gain with vemurafenib	lactate per cell with vemurafenib
GP6 (GeneID 51206)	1	0.92	0.74
EIPR1 (GeneID 7260)	1	0.85	0.54
MTFP1 (GeneID 51537)	1	0.92	1.29
ARHGAP27 (GeneID 201176)	1	0.59	1.02
ARHGAP27 (GeneID 201176)	2	0.87	1.79
GET4 (GeneID 51608)	1	0.63	0.59
OMD (GeneID 4958)	1	1.09	0.69
SLC20A1 (GeneID 6574)	1	1.07	0.6
FARS2 (GeneID 10667)	1	0.5	0.8
ZNG1E (GeneID 220869)	1	0.7	1.67
SSC4D (GeneID 136853)	1	0.55	0.76
PPFIA1 (GeneID 8500)	1	0.55	1.4
IQCJ (GeneID 654502)	1	0.61	0.26
HOXA10 (GeneID 3206)	1	0.69	0.72
POLA2 (GeneID 23649)	1	0.01	2.37
OSGIN1 (GeneID 29948)	1	0.73	0.98
KCNK4 (GeneID 50801)	1	0.18	0.78
SFT2D2 (GeneID 375035)	1	0.62	1.58
LIN28A (GeneID 79727)	1	0.42	0.98
OSTF1 (GeneID 26578)	1	0.7	0.26
ZNF256 (GeneID 10172)	1	0.45	0.98
HIRA (GeneID 7290)	1	0.44	0.64
NUBP1 (GeneID 4682)	1	0.74	0.8
DUSP5 (GeneID 1847)	1	0.76	0.6
DAZ3 (GeneID 57054)	1	0.29	1.25
PRH1 (GeneID 5554)	1	0.69	1.72
MLF2 (GeneID 8079)	1	0.3	0.99
EVL (GeneID 51466)	1	0.43	1.21
MRPL32 (GeneID 64983)	1	0.7	1.56
TLCD4 (GeneID 148534)	1	0.8	0.76
RGS16 (GeneID 6004)	1	0.54	0.84
CWC15 (GeneID 51503)	1	0.33	0.9
ARHGAP15 (GeneID 55843)	1	0.99	0.85
TRIM51BP (GeneID 399937)	1	0.99	0.86
IDH2 (GeneID 3418)	1	0.69	0.92
CDC42BPG (GeneID 55561)	1	0.54	1.16
TCERG1 (GeneID 10915)	1	0.52	1.58
NUDT11 (GeneID 55190)	1	0.25	1.99
ZNF84 (GeneID 7637)	1	0.63	0.84
ANO2 (GeneID 57101)	1	0.39	1.6
KRTAP10-12 (GeneID 386685)	1	0.48	0.9
SEPTIN6 (GeneID 23157)	1	0.03	1.42
GAGE4 (GeneID 2576)	1	0.74	0.86
NTS (GeneID 4922)	1	1.01	0.3
GHRHR (GeneID 2692)	1	0.21	1.52
ZNRF4 (GeneID 148066)	1	1.01	0.75
ZNRF4 (GeneID 148066)	1	0.63	1.44
CDCA2 (GeneID 157313)	1	0.62	0.58
TSG101 (GeneID 7251)	1	0.93	1.02
GAK (GeneID 2580)	1	0.55	0.64
SLC44A2 (GeneID 57153)	1	0.07	2.31
CDC123 (GeneID 8872)	1	0.58	1.35
DBNDD1 (GeneID 79007)	1	1.08	0.62
MTNAP1 (GeneID 55028)	1	0.54	1.69
POLR3A (GeneID 11128)	1	0.61 (active)	0.48
MARCHF3 (GeneID 115123)	1	0.62	0.92
SYNGAP1 (GeneID 8831)	1	0.15 (active)	1.38
MINPP1 (GeneID 9562)	1	0.6	1.42
PSORS1C2 (GeneID 170680)	1	0.51	1.01
ZNF518A (GeneID 9849)	1	0.43	1.7
C1orf74 (GeneID 148304)	1	0.44	1.12
RAVER1 (GeneID 125950)	1	1.04	1.27
ZCCHC3 (GeneID 85364)	1	0.69	1.03
TRMT61B (GeneID 55006)	1	0.51 (active)	0.7
RNF10 (GeneID 9921)	1	0.24	1.58
CLUL1 (GeneID 27098)	1	1.14	0.86
IQSEC3 (GeneID 440073)	1	0.72	1.32
CTSE (GeneID 1510)	1	0.61	0.87
TTC16 (GeneID 158248)	1	0.86	0.67
RPS15A (GeneID 6210)	1	-0.02	1.04
ATXN7 (GeneID 6314)	1	0.7 (active)	0.48
BRMS1L (GeneID 84312)	1	0.88	0.55
AMFR (GeneID 267)	1	0.95	1.43
HOXD1 (GeneID 3231)	1	0.58	0.8
WFDC10A (GeneID 140832)	1	0.55	0.9
METTL3 (GeneID 56339)	1	0.81	1.15
USH2A (GeneID 7399)	1	0.3	0.58
ZNF530 (GeneID 348327)	1	0.69	1.04
APOB (GeneID 338)	1	0.13	1.8
SPAG4 (GeneID 6676)	1	0.94	0.87
WDR17 (GeneID 116966)	1	0.87	0.6
HECW1 (GeneID 23072)	1	0.84	0.94
GK (GeneID 2710)	1	0.73	0.77
OR51G2 (GeneID 81282)	1	0.79	1.07

6 neighbouring records from above, for reference:
gene	reagent	cell gain with vemurafenib	lactate per cell with vemurafenib
NUDT11 (GeneID 55190)	1	0.25	1.99
ZNF84 (GeneID 7637)	1	0.63	0.84
ANO2 (GeneID 57101)	1	0.39	1.6
KRTAP10-12 (GeneID 386685)	1	0.48	0.9
SEPTIN6 (GeneID 23157)	1	0.03	1.42
GAGE4 (GeneID 2576)	1	0.74	0.86
